Data taken from patent US7307068B2, “Use of rapamycin to inhibit immune response and induce tolerance to gene therapy vector and encoded transgene products” (Genzyme Corporation, priority 2000, dated 2007).
For at least one compound, name, drawing or mass did not settle the structure.

How the values were obtained:
Ad vector [1] = assay: CTL responses after co-administration of rapamycin with Ad2/α-gal vector; assay type: in vivo; details: rapamycin 70 ug per mouse I.P. daily for 7 days; Ad2/α-gal vector I.V.
Ad2 = assay: Rapamycin+Anti-CD40L experiments: anti-Ad2 antibody titers; assay type: in vivo, Balb/c mice; details: Ad2/CMVα-gal 6e10 particles/mouse I.V. day 0; MR-1 500 ug/mouse I.P. days -1,+2,+7,+13; rapamycin 2.5 mg/kg I.P. daily day 0 to +13; FIG. 2
Ad vector [2] = assay: Antibody response after co-administration of rapamycin with Ad2/α-gal vector; assay type: in vivo; details: rapamycin 70 ug per mouse I.P. daily for 7 days; Ad2/α-gal vector I.V.
Ad/α-gal vector = assay: CTL responses after co-administration of rapamycin with Ad2/α-gal vector; assay type: in vivo; details: rapamycin 70 ug per mouse I.P. daily for 7 days; Ad2/α-gal vector I.V.

## CO[C@H]1C[C@@H]2CC[C@@H](C)[C@@](O)(O2)C(=O)C(=O)N2CCCC[C@H]2C(=O)O[C@H]([C@H](C)C[C@@H]2CC[C@@H](O)[C@H](OC)C2)CC(=O)[C@H](C)/C=C(\C)[C@@H](O)[C@@H](OC)C(=O)[C@H](C)C[C@H](C)/C=C/C=C/C=C/1C [Rapamycin, rapamycin]
Ad vector [1]
  CTL responses to Ad vector: significantly inhibit
Ad2
  anti-Ad2 antibody titers versus control group (Ad vector alone): significantly lower
Ad vector [2]
  antibody response to Ad vector: significantly inhibited
Ad/α-gal vector
  CTL responses to Ad/α-gal vector: significantly inhibit
